PubChem BioAssay AID1259405, NCATS – 2018
Aim: 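Silenced genes that increase secreted GFP made by CHO cells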 (primary screen). System: Chinese hamster CHO-K1 ovary cells with stable secreted eGFP expression. Reagents: single siRNA against mouse genes, 0.8 pmol siRNA per well (2 µl of 400 nM stock). Timing: 3 days. Measured: 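Percent of the per-plate non-targeting control median for intracellular GFP per well by laser scanning cytometry and for cell viability by ATP luminescence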. Scale: GFP, % of control: higher = more GFP per well, higher productivity; viability (ATP), % of control: higher = more viable cells (more ATP). Call rule: 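a knock-down is called active if GFP reaches 120% or more of non-targeting control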.
The deposit covers about 50,000 reagents; this is a random part of them. Over the whole deposit, about 4,000 (8%) are marked active. 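Mouse siRNA library applied to hamster cells; one well for each siRNA.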 Reagents against one gene are numbered here. No sequences are given here.

Gene | siRNA no. | GFP, % of control | viability (ATP), % of control | Call
Ssh2 (slingshot protein phosphatase 2) | 1 | 100 | 74.2 | inactive
Ssh2 (slingshot protein phosphatase 2) | 2 | 55.2 | 69.4 | inactive
Ssh2 (slingshot protein phosphatase 2) | 3 | 116 | 71.7 | inactive
Dusp16 (dual specificity phosphatase 16) | 1 | 70.6 | 74 | inactive
Dusp16 (dual specificity phosphatase 16) | 2 | 82.2 | 71.8 | inactive
Vmn2r42 (vomeronasal 2, receptor 42) | 1 | 50.7 | 44.8 | inactive
Vmn2r42 (vomeronasal 2, receptor 42) | 2 | 80.2 | 81.4 | inactive
Vmn2r42 (vomeronasal 2, receptor 42) | 3 | 87.2 | 66.3 | inactive
Lin37 (lin-37 DREAM MuvB core complex component) | 1 | 87.7 | 73.4 | inactive
Lin37 (lin-37 DREAM MuvB core complex component) | 2 | 123 | 79.5 | active
Lin37 (lin-37 DREAM MuvB core complex component) | 3 | 86.4 | 73.2 | inactive
Adprhl1 (ADP-ribosylhydrolase like 1) | 1 | 73.9 | 77 | inactive
Adprhl1 (ADP-ribosylhydrolase like 1) | 2 | 88.1 | 92.9 | inactive
Adprhl1 (ADP-ribosylhydrolase like 1) | 3 | 140 | 116 | active
Trim36 (tripartite motif-containing 36) | 1 | 56.4 | 40.8 | inactive
Trim36 (tripartite motif-containing 36) | 2 | 64.1 | 77.4 | inactive
Trim36 (tripartite motif-containing 36) | 3 | 105 | 59.9 | inactive
Cyp27a1 (cytochrome P450, family 27, subfamily a, polypeptide 1) | 1 | 96.7 | 79.9 | inactive
Cyp27a1 (cytochrome P450, family 27, subfamily a, polypeptide 1) | 2 | 58 | 85.4 | inactive
Cyp27a1 (cytochrome P450, family 27, subfamily a, polypeptide 1) | 3 | 75.6 | 73.6 | inactive
Gpr150 (G protein-coupled receptor 150) | 1 | 39.6 | 59.1 | inactive
Gpr150 (G protein-coupled receptor 150) | 2 | 74.1 | 80.3 | inactive
Gpr150 (G protein-coupled receptor 150) | 3 | 84.5 | 81 | inactive
Fshr (follicle stimulating hormone receptor) | 1 | 105 | 77 | inactive
Fshr (follicle stimulating hormone receptor) | 2 | 78.5 | 73 | inactive
Fshr (follicle stimulating hormone receptor) | 3 | 82.4 | 88.4 | inactive
Nacc2 | 1 | 53.3 | 49 | inactive
Nacc2 | 2 | 67.3 | 64.3 | inactive
Nacc2 | 3 | 94.2 | 108 | inactive
Sult1a1 (sulfotransferase family 1A, phenol-preferring, member 1) | 1 | 101 | 89.3 | inactive
Sult1a1 (sulfotransferase family 1A, phenol-preferring, member 1) | 2 | 87.3 | 115 | inactive
Sult1a1 (sulfotransferase family 1A, phenol-preferring, member 1) | 3 | 97.4 | 124 | inactive
Tmem25 (transmembrane protein 25) | 1 | 56.5 | 38.8 | inactive
Tmem25 (transmembrane protein 25) | 2 | 89.6 | 106 | inactive
Tmem25 (transmembrane protein 25) | 3 | 102 | 116 | inactive
Uqcc2 (ubiquinol-cytochrome c reductase complex assembly factor 2) | 1 | 41 | 72.4 | inactive
Uqcc2 (ubiquinol-cytochrome c reductase complex assembly factor 2) | 2 | 58.3 | 67.1 | inactive
Uqcc2 (ubiquinol-cytochrome c reductase complex assembly factor 2) | 3 | 61 | 52.7 | inactive

The list goes on, starting with the last 8 of the part before.
Gene | siRNA no. | GFP, % of control | viability (ATP), % of control | Call
Sult1a1 (sulfotransferase family 1A, phenol-preferring, member 1) | 2 | 87.3 | 115 | inactive
Sult1a1 (sulfotransferase family 1A, phenol-preferring, member 1) | 3 | 97.4 | 124 | inactive
Tmem25 (transmembrane protein 25) | 1 | 56.5 | 38.8 | inactive
Tmem25 (transmembrane protein 25) | 2 | 89.6 | 106 | inactive
Tmem25 (transmembrane protein 25) | 3 | 102 | 116 | inactive
Uqcc2 (ubiquinol-cytochrome c reductase complex assembly factor 2) | 1 | 41 | 72.4 | inactive
Uqcc2 (ubiquinol-cytochrome c reductase complex assembly factor 2) | 2 | 58.3 | 67.1 | inactive
Uqcc2 (ubiquinol-cytochrome c reductase complex assembly factor 2) | 3 | 61 | 52.7 | inactive
Gbp6 (guanylate binding protein 6) | 1 | 85.2 | 74.4 | inactive
Gbp6 (guanylate binding protein 6) | 2 | 61.3 | 60.8 | inactive
Gbp6 (guanylate binding protein 6) | 3 | 111 | 75.4 | inactive
Scn7a (sodium channel, voltage-gated, type VII, alpha) | 1 | 82.9 | 89.5 | inactive
Scn7a (sodium channel, voltage-gated, type VII, alpha) | 2 | 21.8 | 25.5 | inactive
Scn7a (sodium channel, voltage-gated, type VII, alpha) | 3 | 102 | 87.5 | inactive
Myo3b (myosin IIIB) | 1 | 45.5 | 54.4 | inactive
Myo3b (myosin IIIB) | 2 | 67.7 | 74 | inactive
Myo3b (myosin IIIB) | 3 | 77.4 | 79.3 | inactive
Tgm6 (transglutaminase 6) | 1 | 126 | 98.4 | active
Tgm6 (transglutaminase 6) | 2 | 95.3 | 160 | inactive
Tgm6 (transglutaminase 6) | 3 | 126 | 130 | active
Abat (4-aminobutyrate aminotransferase) | 1 | 75.3 | 66.6 | inactive
Abat (4-aminobutyrate aminotransferase) | 2 | 106 | 125 | inactive
Abat (4-aminobutyrate aminotransferase) | 3 | 104 | 107 | inactive
Mdga2 (MAM domain containing glycosylphosphatidylinositol anchor 2) | 1 | 122 | 89 | active
Mdga2 (MAM domain containing glycosylphosphatidylinositol anchor 2) | 2 | 78.7 | 97 | inactive
Mdga2 (MAM domain containing glycosylphosphatidylinositol anchor 2) | 3 | 41 | 64.1 | inactive
Lrrc23 (leucine rich repeat containing 23) | 1 | 47.5 | 68.9 | inactive
Lrrc23 (leucine rich repeat containing 23) | 2 | 62.2 | 58.8 | inactive
Lrrc23 (leucine rich repeat containing 23) | 3 | 94.2 | 59.5 | inactive
